From PMC7362500 come the findings set out here.

No constants are given. Whether binding was seen depends on the method and setting. Binding seen in cells or lysates may run through a third protein. Binding can be weak; no strength is given. Tags and fused reporters may be left off the sequences shown.

In the assay the target is PD-L1 ICD (intracellular domain). In words: co-IP; PD-L1 with fragments of USP22 (Fig. 3d) and USP22 with fragments of PD-L1 (Fig. 3e); cells and antibodies not stated.

B1: USP22-HA (Ubiquitin Specific Peptidase 22) (enzyme, UniProt Q9UPT9 1-525)
chain: MVSRPEPEGEAMDAELAVAPPGCSHLGSFKVDNWKQNLRAIYQCFVWSGTAEARKRKAKSCICHVCGVHLNRLHSCLYCVFFGCFTKKHIHEHAKAKRHNLAIDLMYGGIYCFLCQDYIYDKDMEIIAKEEQRKAWKMQGVGEKFSTWEPTKRELELLKHNPKRRKITSNCTIGLRGLINLGNTCFMNCIVQALTHTPLLRDFFLSDRHRCEMQSPSSCLVCEMSSLFQEFYSGHRSPHIPYKLLHLVWTHARHLAGYEQQDAHEFLIAALDVLHRHCKGDDNGKKANNPNHCNCIIDQIFTGGLQSDVTCQVCHGVSTTIDPFWDISLDLPGSSTPFWPLSPGSEGNVVNGESHVSGTTTLTDCLRRFTRPEHLGSSAKIKCSGCHSYQESTKQLTMKKLPIVACFHLKRFEHSAKLRRKITTYVSFPLELDMTPFMASSKESRMNGQYQQPTDSLNNDNKYSLFAVVNHQGTLESGHYTSFIRQHKDQWFKCDDAIITKASIKDVLDSEGYLLFYHKQFLEYE
Regarding B1, the binding entry is “binds”.
